Measurements as given in patent US20250281464A1, “TREATMENT OF PATHOGENIC NEISSERIA SP. INFECTION WITH TRIAZOLE ANTIFUNGAL AGENTS” (Virginia Tech Intellectual Properties, Inc., priority 2022, published 2025).
At least one structure is not confirmed: it was looked up by name or label, or the drawing left a doubt.

Test system: N. gonorrhoeae
Assay: Drug library screen against N. gonorrhoeae
Assay type: cell-based, Neisseria gonorrhoeae
Settings: Johns Hopkins Clinical Compounds Library, MCE FDA-Approved Drug Library, Pharmakon library; killing in clinical range
From the text: To identify drugs capable of killing Neisseria gonorrhoeae, the Johns Hopkins Clinical Compounds Library (1514), the MCE FDA-Approved Drug Library (2441), and the Pharmakon library (1600) were screened against N. gonorrhoeae. Positive hits that are capable of killing Neisseria gonorrhoeae in clinical range were identified (itraconazole, ravuconazole and isavuconazole).

**Q.** For `CCC(C)n1ncn(-c2ccc(N3CCN(c4ccc(OCC5COC(Cn6cncn6)(c6ccc(Cl)cc6Cl)O5)cc4)CC3)cc2)c1=O` (stereo not shown) [Itraconazole], which screening outcome is on record?
**A.** Positive hits
